{"source": "patent US8455194B2", "about": "“Diagnostic methods” (Isis Innovation Limited, priority 2008, dated 2013)", "origin": "cited, not measured here", "test_system": "SLCO1B1 rs4149056 SNP", "conditions": "summary estimate with interval in brackets; cited from earlier work"}
{"smiles": "CC(C)c1c(C(=O)Nc2ccccc2)c(-c2ccccc2)c(-c2ccc(F)cc2)n1CC[C@@H](O)C[C@@H](O)CC(=O)O", "note": "[Atorvastatin (acid), Atorvastatin]", "values": [{"measurement": "% higher AUC per C allele among studies of this statin", "result": "54 (24, 92) %"}]}
